Assay results reported in PMC12637713.
Results are given in words; binding and its absence hold for the method and conditions named. In cells and extracts the contact can be indirect. Here binding means that the protein was enriched with, or labelled near, the bait; the list need not be complete.

Biological target: GFP-tagged DS1-VP7 (VP7 of human rotavirus DS1 strain) (human rotavirus DS1 strain)
Assay: affinity purification with mass spectrometry; tandem affinity purification (two rounds of immunoprecipitation) of DS1 VP7 followed by LC-MS/MS; host proteins that co-precipitate

Row | Binder | binding
1 | signal peptidase complex catalytic subunit SEC11C (protein, UniProt Q9BY50 1-192) MVRAGAVGAHLPASGLDIFGDLKKMNKRQLYYQVLNFAMIVSSALMIWKGLIVLTGSESPIVVVLSGSMEPAFHRGDLLFLTNFREDPIRAGEIVVFKVEGRDIPIVHRVIKVHEKDNGDIKFLTKGDNNEVDDRGLYKEGQNWLEKKDVVGRARGFLPYVGMVTIIMNDYPKFKYALLAVMGAYVLLKRES | binds
2 | signal peptidase complex subunit 3 (protein, UniProt P61009 1-180) MNTVLSRANSLFAFSLSVMAALTFGCFITTAFKDRSVPVRLHVSRIMLKNVEDFTGPRERSDLGFITFDITADLENIFDWNVKQLFLYLSAEYSTKNNALNQVVLWDKIVLRGDNPKLLLKDMKTKYFFFDDGNGLKGNRNVTLTLSWNVVPNAGILPLVTGSGHVSVPFPDTYEITKSY | binds
3 | signal peptidase complex subunit 1 (endogenous) (protein, UniProt Q9Y6A9 1-169) MARGGDTGCTGPSETSASGAAAIALPGLEGPATDAQCQTLPLTVLKSRSPSPRSLPPALSCPPPQPAMLEHLSSLPTQMDYKGQKLAEQMFQGIILFSAIVGFIYGYVAEQFGWTVYIVMAGFAFSCLLTLPPWPIYRRHPLKWLPVQESSTDDKKPGERKIKRHAKNN | binds
